Data from patent publication US9926581B2, “Fagopyritol synthase genes and uses thereof” (Cornell Research Foundation, Inc., priority 2002, dated 2018).

How the values were obtained:
[1] = system: soybean explants; test: Soybean explant feeding with 50 mM free cyclitols for one week, soluble carbohydrates in mature seeds; type: in vivo, Glycine max (L.) Merrill cv. Chippewa 64
[2] = system: buckwheat embryos; test: Soluble carbohydrates in buckwheat embryos from seeds matured at 15, 22 or 30° C.; type: in vivo, Fagopyrum esculentum Moench; conditions: for Soluble carbohydrates in buckwheat embryos: harvested at 28 DAP and dried 2 weeks at 12% RH, mean ± SE
[3] = system: buckwheat explants; test: Buckwheat explant feeding with 100 mM cyclitol in 1% sucrose for 5 days, soluble carbohydrates in embryos and leaf disks; type: in vivo, Fagopyrum esculentum; conditions: replicate values
[4] = system: soybean explants; test: Soybean explant feeding 3 days with 50 mM cyclitol in 1% sucrose, slow drying time course, soluble carbohydrates in axis, cotyledon, seed coat and leaf
[5] = 3 days transport of sucrose (1%) and D-chiro-inositol (50 mM), after 2 days slow drying, Rep 1
[6] = 3 days transport of sucrose (1%) and D-chiro-inositol (50 mM), after 2 days slow drying, Rep 2
[7] = 3 days transport of sucrose (1%) and D-chiro-inositol (50 mM), after 4 days slow drying, Rep 1
[8] = 3 days transport of sucrose (1%) and D-chiro-inositol (50 mM), after 4 days slow drying, Rep 2
[9] = 3 days transport of sucrose (1%) and D-chiro-inositol (50 mM), after 14 days slow drying, Rep 1
[10] = 3 days transport of sucrose (1%) and D-chiro-inositol (50 mM), after 14 days slow drying, Rep 2
[11] = 3 days transport of sucrose (1%) and D-chiro-inositol (50 mM), before slow drying, Rep 1
[12] = 3 days transport of sucrose (1%) and D-chiro-inositol (50 mM), before slow drying, Rep 2
[13] = 3 days transport of sucrose (1%) and D-pinitol (50 mM), after 2 days slow drying, Rep 1
[14] = 3 days transport of sucrose (1%) and D-pinitol (50 mM), after 2 days slow drying, Rep 2
[15] = 3 days transport of sucrose (1%) and D-pinitol (50 mM), after 4 days slow drying, Rep 1

## OCC1O[C@H](OCC2O[C@H](OC3C(O)[C@H](O)C(O)[C@H](O)[C@@H]3O)C(O)[C@H](O)[C@H]2O)C(O)[C@H](O)[C@H]1O (stereo partly drawn) [α-D-galactopyranosyl-(1→6)-α-D-galactopyranosyl-(1→2)-1D-chiro-inositol]
[1]; axis tissues
  increase after feeding 50 mM D-chiro-inositol to explants: 11 fold
[1]; cotyledon tissues
  increase after feeding 50 mM D-chiro-inositol to explants: 10 fold
[2]; after 2 weeks of drying of seeds
  content in embryos of seeds matured at 30° C. relative to 15° C.: ~8 times
[2]; seeds matured at 15° C.
  Soluble carbohydrates in buckwheat embryos: 2.47 ± 0.74 μg/embryo
[2]; seeds matured at 22° C.
  Soluble carbohydrates in buckwheat embryos: 12.98 ± 3.59 μg/embryo
[2]; seeds matured at 30° C.
  Soluble carbohydrates in buckwheat embryos: 19.70 ± 1.74 μg/embryo
[3]; fed 100 mM D-chiro-inositol in 1% sucrose solution 5 days, 2 days slow drying
  Soluble carbohydrates in embryos of seeds from buckwheat explants: 5.51 μg/embryo and 3.45 μg/embryo
[3]; fed 100 mM D-chiro-inositol in 1% sucrose solution 5 days, 4 days slow drying
  Soluble carbohydrates in embryos of seeds from buckwheat explants: 3.95 μg/embryo and 2.83 μg/embryo and 1.57 μg/embryo
[3]; fed 100 mM D-chiro-inositol in 1% sucrose solution 5 days, 7 days slow drying
  Soluble carbohydrates in embryos of seeds from buckwheat explants: 2.28 μg/embryo and 0.91 μg/embryo and 1.99 μg/embryo
[3]; fed 100 mM D-chiro-inositol in 1% sucrose solution, after 1 day feeding
  Soluble carbohydrates in embryos of seeds from buckwheat explants: 0 μg/embryo
[3]; fed 100 mM D-chiro-inositol in 1% sucrose solution, after 5 days feeding
  Soluble carbohydrates in embryos of seeds from buckwheat explants: 0 μg/embryo and 5.48 μg/embryo and 1.72 μg/embryo
[3]; fed 100 mM D-pinitol in 1% sucrose solution 5 days, 2 days slow drying
  Soluble carbohydrates in embryos of seeds from buckwheat explants: 0 μg/embryo and 6.69 μg/embryo and 4.98 μg/embryo
[3]; fed 100 mM D-pinitol in 1% sucrose solution 5 days, 4 days slow drying
  Soluble carbohydrates in embryos of seeds from buckwheat explants: 5.70 μg/embryo and 4.29 μg/embryo and 4.46 μg/embryo
[3]; fed 100 mM D-pinitol in 1% sucrose solution 5 days, 7 days slow drying
  Soluble carbohydrates in embryos of seeds from buckwheat explants: 1.60 μg/embryo and 0.48 μg/embryo and 2.47 μg/embryo
[3]; fed 100 mM D-pinitol in 1% sucrose solution, after 1 day feeding
  Soluble carbohydrates in embryos of seeds from buckwheat explants: 0 μg/embryo
[3]; fed 100 mM D-pinitol in 1% sucrose solution, after 5 days feeding
  Soluble carbohydrates in embryos of seeds from buckwheat explants: 0 μg/embryo
[3]; fed 100 mM myo-inositol in 1% sucrose solution 5 days, 2 days slow drying
  Soluble carbohydrates in embryos of seeds from buckwheat explants: 35.81 μg/embryo and 3.22 μg/embryo
[3]; fed 100 mM myo-inositol in 1% sucrose solution 5 days, 4 days slow drying
  Soluble carbohydrates in embryos of seeds from buckwheat explants: 13.37 μg/embryo and 3.31 μg/embryo
[3]; fed 100 mM myo-inositol in 1% sucrose solution 5 days, 7 days slow drying
  Soluble carbohydrates in embryos of seeds from buckwheat explants: 3.53 μg/embryo and 2.57 μg/embryo
[3]; fed 100 mM myo-inositol in 1% sucrose solution, after 1 day feeding
  Soluble carbohydrates in embryos of seeds from buckwheat explants: 0 μg/embryo
[3]; fed 100 mM myo-inositol in 1% sucrose solution, after 5 days feeding
  Soluble carbohydrates in embryos of seeds from buckwheat explants: 1.62 μg/embryo and 0 μg/embryo
[3]; fed 1% sucrose (without cyclitols) solution 5 days, 2 days slow drying
  Soluble carbohydrates in embryos of seeds from buckwheat explants: 0.66 μg/embryo and 10.83 μg/embryo and 4.39 μg/embryo
[3]; fed 1% sucrose (without cyclitols) solution 5 days, 4 days slow drying
  Soluble carbohydrates in embryos of seeds from buckwheat explants: 11.05 μg/embryo and 5.72 μg/embryo
[3]; fed 1% sucrose (without cyclitols) solution 5 days, 7 days slow drying
  Soluble carbohydrates in embryos of seeds from buckwheat explants: 7.65 μg/embryo and 6.34 μg/embryo
[3]; fed 1% sucrose (without cyclitols) solution, after 5 days feeding
  Soluble carbohydrates in embryos of seeds from buckwheat explants: 0 μg/embryo and 6.72 μg/embryo
[4]; [5]
  Accumulation of soluble carbohydrates in soybean axis: 0 μg/axis
  Accumulation of soluble carbohydrates in soybean cotyledon: 0 μg/cotyledon
  Accumulation of soluble carbohydrates in soybean seed coat: 0 μg/seed coat
[4]; [6]
  Accumulation of soluble carbohydrates in soybean axis: 0 μg/axis
  Accumulation of soluble carbohydrates in soybean cotyledon: 4.57 μg/cotyledon
  Accumulation of soluble carbohydrates in soybean seed coat: 0 μg/seed coat
[4]; [7]
  Accumulation of soluble carbohydrates in soybean axis: 0 μg/axis
  Accumulation of soluble carbohydrates in soybean cotyledon: 12.10 μg/cotyledon
  Accumulation of soluble carbohydrates in soybean seed coat: 0 μg/seed coat
[4]; [8]
  Accumulation of soluble carbohydrates in soybean axis: 1.72 μg/axis
  Accumulation of soluble carbohydrates in soybean cotyledon: 11.12 μg/cotyledon
  Accumulation of soluble carbohydrates in soybean seed coat: 0 μg/seed coat
[4]; [9]
  Accumulation of soluble carbohydrates in soybean axis: 2.07 μg/axis
  Accumulation of soluble carbohydrates in soybean cotyledon: 23.98 μg/cotyledon
  Accumulation of soluble carbohydrates in soybean seed coat: 0 μg/seed coat
[4]; [10]
  Accumulation of soluble carbohydrates in soybean axis: 0 μg/axis
  Accumulation of soluble carbohydrates in soybean cotyledon: 22.70 μg/cotyledon
  Accumulation of soluble carbohydrates in soybean seed coat: 1.35 μg/seed coat
[4]; [11]
  Accumulation of soluble carbohydrates in soybean axis: 0 μg/axis
  Accumulation of soluble carbohydrates in soybean cotyledon: 0 μg/cotyledon
[4]; [12]
  Accumulation of soluble carbohydrates in soybean axis: 0 μg/axis
  Accumulation of soluble carbohydrates in soybean cotyledon: 0 μg/cotyledon
[4]; [13]
  Accumulation of soluble carbohydrates in soybean axis: 0 μg/axis
  Accumulation of soluble carbohydrates in soybean cotyledon: 4.91 μg/cotyledon
  Accumulation of soluble carbohydrates in soybean seed coat: 0 μg/seed coat
[4]; [14]
  Accumulation of soluble carbohydrates in soybean axis: 0 μg/axis
  Accumulation of soluble carbohydrates in soybean cotyledon: 0 μg/cotyledon
  Accumulation of soluble carbohydrates in soybean seed coat: 0 μg/seed coat
[4]; [15]
  Accumulation of soluble carbohydrates in soybean axis: 0 μg/axis
  Accumulation of soluble carbohydrates in soybean cotyledon: 15.04 μg/cotyledon
  Accumulation of soluble carbohydrates in soybean seed coat: 0 μg/seed coat

Where “and” joins values, the source holds several entries; their conditions need not be identical. Equal values may be shown once.
